Assay results from paper PMC11516157.
These are yes or no findings as the source states them, for the method shown. Binding seen in cells or lysates may run through a third protein. Some binding calls cover weakened binding; strength is not graded here.

Amino acid sequences for entries named in this document (tags omitted). Residues count along the entry.
UniProt P36894, residues 24-532: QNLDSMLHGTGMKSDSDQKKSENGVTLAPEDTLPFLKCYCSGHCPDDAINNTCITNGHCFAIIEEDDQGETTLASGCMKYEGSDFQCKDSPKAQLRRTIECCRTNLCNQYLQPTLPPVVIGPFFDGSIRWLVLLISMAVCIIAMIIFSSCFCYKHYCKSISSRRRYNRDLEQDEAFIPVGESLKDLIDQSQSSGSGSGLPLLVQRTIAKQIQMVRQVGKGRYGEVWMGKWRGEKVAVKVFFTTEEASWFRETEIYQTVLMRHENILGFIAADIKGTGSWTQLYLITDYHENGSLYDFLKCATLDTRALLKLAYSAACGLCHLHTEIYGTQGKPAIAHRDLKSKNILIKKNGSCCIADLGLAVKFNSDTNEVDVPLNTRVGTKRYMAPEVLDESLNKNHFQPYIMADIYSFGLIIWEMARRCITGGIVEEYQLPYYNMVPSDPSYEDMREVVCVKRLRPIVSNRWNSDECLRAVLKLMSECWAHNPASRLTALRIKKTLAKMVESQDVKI

Target: BMPR1A (BMP2 membrane receptor) (human (endogenous in hRIFs)) (UniProt P36894)
Experiment: co-IP; anti-BMPR1A immunoprecipitation from hRIFs; blots for BMP2 and OMD

binding: binds
B1: osteomodulin (OMD), endogenous in human renal interstitial fibroblasts (protein, UniProt Q99983 21-421)
chain: QYETYQWDEDYDQEPDDDYQTGFPFRQNVDYGVPFHQYTLGCVSECFCPTNFPSSMYCDNRKLKTIPNIPMHIQQLYLQFNEIEAVTANSFINATHLKEINLSHNKIKSQKIDYGVFAKLPNLLQLHLEHNNLEEFPFPLPKSLERLLLGYNEISKLQTNAMDGLVNLTMLDLCYNYLHDSLLKDKIFAKMEKLMQLNLCSNRLESMPPGLPSSLMYLSLENNSISSIPEKYFDKLPKLHTLRMSHNKLQDIPYNIFNLPNIVELSVGHNKLKQAFYIPRNLEHLYLQNNEIEKMNLTVMCPSIDPLHYHHLTYIRVDQNKLKEPISSYIFFCFPHIHTIYYGEQRSTNGQTIQLKTQVFRRFPDDDDESEDHDDPDNAHESPEQEGAEGHFDLHYYENQE
